Laboratory results: patent publication US20110118181A1
These are yes or no findings as the source states them, for the method shown. For part of these data: In cells and extracts the contact can be indirect. Some results given as binding are weak or reduced against the parent protein; the word gives no strength.

By UniProt entry, the sequences of proteins in these tests, tags left out. Where a name states a change or a piece, a line headed by the entry shows the natural chain unless it says otherwise. Chains listed by the source or under a name are the forms on record and can include a tag or linker. Residues count along the entry.
UniProt Q8NBP7: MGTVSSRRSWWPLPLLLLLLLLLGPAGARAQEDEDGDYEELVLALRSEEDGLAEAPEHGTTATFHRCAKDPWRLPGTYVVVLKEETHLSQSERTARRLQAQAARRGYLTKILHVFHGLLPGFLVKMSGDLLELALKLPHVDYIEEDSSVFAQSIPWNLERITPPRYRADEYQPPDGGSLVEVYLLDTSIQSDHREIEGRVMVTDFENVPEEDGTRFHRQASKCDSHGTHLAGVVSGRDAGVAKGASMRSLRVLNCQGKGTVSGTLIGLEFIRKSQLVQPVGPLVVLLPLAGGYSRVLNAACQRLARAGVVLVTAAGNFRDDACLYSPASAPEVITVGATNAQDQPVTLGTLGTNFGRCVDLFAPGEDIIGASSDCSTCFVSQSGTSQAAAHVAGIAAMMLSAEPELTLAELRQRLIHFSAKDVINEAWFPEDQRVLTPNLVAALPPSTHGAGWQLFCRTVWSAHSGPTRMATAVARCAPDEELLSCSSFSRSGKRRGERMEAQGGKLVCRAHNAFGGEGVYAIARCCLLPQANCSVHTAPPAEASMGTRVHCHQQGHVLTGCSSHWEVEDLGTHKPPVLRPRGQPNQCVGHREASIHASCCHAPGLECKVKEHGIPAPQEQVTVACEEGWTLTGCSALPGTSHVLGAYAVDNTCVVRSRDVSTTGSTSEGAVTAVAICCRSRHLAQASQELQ
CHRD-V5 (C-terminal Cys-His-rich domain of PCSK9, V5-tagged): residues 455-692 of Q8NBP7

Columns and labels:
[1] = biological target: AnxA2-HA (full-length human AnxA2 with C-terminal HA epitope) (human) (UniProt P07355); assay: co-immunoprecipitation with anti-V5; co-expressed p11 did not interfere
purified AnxA2-(His)6 = purified AnxA2-(His)6 (UniProt P07355); assay: Far Western blot of purified AnxA2-(His)6
[2] = biological target: CHRD-V5 (C-terminal Cys-His-rich domain of PCSK9, V5-tagged) (human) (UniProt Q8NBP7); assay: summary sentence to FIG. 4E (native forms)
[3] = biological target: PCSK9-V5 (full-length human PCSK9 with C-terminal V5 tag) (human) (UniProt Q8NBP7); assay: poly-histidine pull-down, AnxA2-(His)6 on cobalt chelate beads
purified PCSK9-(His)6 = purified PCSK9-(His)6 (UniProt Q8NBP7); assay: immunofluorescence of cell surface PCSK9 on CHO-K1 cells overexpressing LDLR, competition
[4] = biological target: PCSK9-V5 (full-length human PCSK9 with C-terminal V5 tag) (human) (UniProt Q8NBP7); assay: poly-histidine pull-down

Measured: binding

PCSK9-V5 (full-length human PCSK9 with C-terminal V5 tag) (from UniProt Q8NBP7 31-692) (enzyme)
binds: [1] | purified AnxA2-(His)6

purified AnxA2-(His)6 (from UniProt P07355 1-339)
binds: [2] | [3] | purified PCSK9-(His)6 | [4]
